Laboratory results: article PMC7785020, “A unique hormonal recognition feature of the human glucagon-like peptide-2 receptor” (Cell Research, 2020)
No constants are given. Whether binding was seen depends on the method and setting. For some assays here: In cells and extracts the contact can be indirect. Some entries that bind do so weakly or less than the wild type. For some assays here: Sequences can lack the tags named with a protein.

Chains of the proteins cited; added tags and fusions are not shown.
UniProt P54311: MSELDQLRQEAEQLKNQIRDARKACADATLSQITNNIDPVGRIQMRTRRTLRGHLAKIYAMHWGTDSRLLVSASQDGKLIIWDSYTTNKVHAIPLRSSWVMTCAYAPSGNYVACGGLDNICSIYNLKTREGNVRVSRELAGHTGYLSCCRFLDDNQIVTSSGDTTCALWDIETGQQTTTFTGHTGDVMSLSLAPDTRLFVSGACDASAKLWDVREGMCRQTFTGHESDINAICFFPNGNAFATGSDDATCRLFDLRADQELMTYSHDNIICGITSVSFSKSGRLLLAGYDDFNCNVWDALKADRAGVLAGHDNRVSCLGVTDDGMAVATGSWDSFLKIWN

Key:
[1] = target: T1, wild-type (WT) receptor(1–553)-LgBiT (human) (UniProt O95838); test: split reporter; HEK 293T cells transfected 1:1 with receptor-LgBiT and Gβ-SmBiT or Gβ-HiBiT; coelenterazine H 5 μM; luminescence before and after ligand addition, 25 °C
T1 sequence: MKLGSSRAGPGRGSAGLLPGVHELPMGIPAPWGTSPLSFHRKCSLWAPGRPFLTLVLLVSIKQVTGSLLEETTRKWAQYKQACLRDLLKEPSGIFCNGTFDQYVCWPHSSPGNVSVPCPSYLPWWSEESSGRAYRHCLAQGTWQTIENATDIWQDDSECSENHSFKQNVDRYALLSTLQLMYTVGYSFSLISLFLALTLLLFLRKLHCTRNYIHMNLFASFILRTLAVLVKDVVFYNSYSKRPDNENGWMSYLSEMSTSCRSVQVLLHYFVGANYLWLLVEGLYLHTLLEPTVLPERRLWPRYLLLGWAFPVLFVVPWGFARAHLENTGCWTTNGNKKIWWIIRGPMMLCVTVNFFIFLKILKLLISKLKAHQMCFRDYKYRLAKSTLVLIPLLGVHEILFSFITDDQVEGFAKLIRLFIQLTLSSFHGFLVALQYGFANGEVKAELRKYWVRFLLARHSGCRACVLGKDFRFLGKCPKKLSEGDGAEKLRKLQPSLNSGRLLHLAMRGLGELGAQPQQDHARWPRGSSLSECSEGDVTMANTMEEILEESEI

[2] = target: T2, GLP-2R(1-490)-TEV-OMBP-MBP (human) (UniProt O95838); test: SEC; receptor and G protein subunits co-expressed in Sf9 without NanoBiT tethering; complex formed with GLP-2 and Nb35, solubilised in LMNG/CHS, held on amylose resin, Superdex 200 Increase 10/30; fractions of the 11 ml peak on SDS-PAGE, Coomassie
T2 sequence: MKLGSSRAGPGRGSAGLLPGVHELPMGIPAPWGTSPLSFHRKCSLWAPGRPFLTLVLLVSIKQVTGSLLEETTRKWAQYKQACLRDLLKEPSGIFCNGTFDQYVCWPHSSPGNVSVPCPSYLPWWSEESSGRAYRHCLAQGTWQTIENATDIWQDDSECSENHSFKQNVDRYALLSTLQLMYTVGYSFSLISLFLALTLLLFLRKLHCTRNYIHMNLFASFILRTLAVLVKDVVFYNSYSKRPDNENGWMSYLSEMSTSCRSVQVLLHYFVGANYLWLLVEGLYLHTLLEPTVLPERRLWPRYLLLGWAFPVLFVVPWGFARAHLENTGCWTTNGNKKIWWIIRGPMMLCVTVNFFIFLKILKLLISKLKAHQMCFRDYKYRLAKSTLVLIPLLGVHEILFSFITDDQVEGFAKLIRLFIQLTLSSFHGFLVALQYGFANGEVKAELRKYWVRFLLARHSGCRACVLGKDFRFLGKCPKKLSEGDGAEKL

binding [1] | binding [2] | Substance
binds |  | Gβ-SmBiT (from UniProt P54311 1-340)
 | binds | rat Gβ1 (from UniProt P54311 1-340)
